From publication PMC8698322
Results are given in words; binding and its absence hold for the method and conditions named. Binding can be weak; no strength is given. Where a sequence is shown, tags or fusion partners need not be part of it.

Amino acid sequences for entries named in this document (tags omitted). A change or cut given only in a name is not applied to a line headed by its entry.
UniProt Q257C6: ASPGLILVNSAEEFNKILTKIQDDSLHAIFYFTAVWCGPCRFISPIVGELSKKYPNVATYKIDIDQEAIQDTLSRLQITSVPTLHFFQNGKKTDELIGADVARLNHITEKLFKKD

Target: recombinant pea thioredoxin o1 (PsTRXo1) (pea) (UniProt Q257C6)
Experiment: far-Western, overlay or dot blot; PsTRXo1 (1.5 µg), HsATG4B (2.3 µg) and BSA (1.5 µg) spotted on membranes, blocked in TBST (25 mM Tris-HCl pH 7.5, 1% BSA, 0.1% Tween-20), overlaid with 0.2 µg PsTRXo1 or 0.1 µg HsATG4B in TBST for 2 h at room temperature; detected with anti-PsTRXo1 or anti-CrATG4B; both purified

binding: binds
B1: recombinant human ATG4B, His-tagged (His-HsATG4B) (enzyme, UniProt Q9Y4P1 1-393)
chain: MDAATLTYDTLRFAEFEDFPETSEPVWILGRKYSIFTEKDEILSDVASRLWFTYRKNFPAIGGTGPTSDTGWGCMLRCGQMIFAQALVCRHLGRDWRWTQRKRQPDSYFSVLNAFIDRKDSYYSIHQIAQMGVGEGKSIGQWYGPNTVAQVLKKLAVFDTWSSLAVHIAMDNTVVMEEIRRLCRTSVPCAGATAFPADSDRHCNGFPAGAEVTNRPSPWRPLVLLIPLRLGLTDINEAYVETLKHCFMMPQSLGVIGGKPNSAHYFIGYVGEELIYLDPHTTQPAVEPTDGCFIPDESFHCQHPPCRMSIAELDPSIAVGFFCKTEDDFNDWCQQVKKLSLLGGALPMFELVELQPSHLACPDVLNLSLDSSDVERLERFFDSEDEDFEILSL
